According to the supplement of paper PMC12823440, “Inhibitors supercharge kinase turnover through native proteolytic circuits” (Nature, 2025):
This is one part of the list. The calls rarely recur for the same compound in another form.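 Kinases were expressed as nanoluciferase fusions in K562 cells and luminescence was read every 4 h between 2 and 18 h as percent of control, DMSO set to 100% and a positive control to 0%. A time point counts as decreased when the signal drops significantly (2 sigma). The hit call is the authors' own, does not follow from the count of time points alone, and its rule is not shown.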

By UniProt entry, the sequences of proteins in these tests, tags left out. Where a name states a change or a piece, a line headed by the entry shows the natural chain unless it says otherwise.
UniProt Q92630: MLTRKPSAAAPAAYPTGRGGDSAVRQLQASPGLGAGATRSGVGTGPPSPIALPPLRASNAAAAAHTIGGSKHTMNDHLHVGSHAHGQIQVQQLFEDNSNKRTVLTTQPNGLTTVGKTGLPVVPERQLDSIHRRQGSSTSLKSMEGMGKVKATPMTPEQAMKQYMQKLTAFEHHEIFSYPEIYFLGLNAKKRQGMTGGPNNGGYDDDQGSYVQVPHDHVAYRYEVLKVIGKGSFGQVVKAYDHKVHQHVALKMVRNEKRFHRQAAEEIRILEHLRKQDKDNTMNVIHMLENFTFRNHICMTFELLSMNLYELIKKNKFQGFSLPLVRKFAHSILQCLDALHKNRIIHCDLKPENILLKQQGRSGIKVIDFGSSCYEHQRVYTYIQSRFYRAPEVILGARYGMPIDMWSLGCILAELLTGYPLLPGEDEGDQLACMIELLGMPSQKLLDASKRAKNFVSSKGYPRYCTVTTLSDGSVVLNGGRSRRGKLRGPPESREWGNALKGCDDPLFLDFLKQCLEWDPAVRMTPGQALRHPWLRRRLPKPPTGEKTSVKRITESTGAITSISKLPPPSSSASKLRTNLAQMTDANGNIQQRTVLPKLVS
UniProt Q96GD4, whole entry: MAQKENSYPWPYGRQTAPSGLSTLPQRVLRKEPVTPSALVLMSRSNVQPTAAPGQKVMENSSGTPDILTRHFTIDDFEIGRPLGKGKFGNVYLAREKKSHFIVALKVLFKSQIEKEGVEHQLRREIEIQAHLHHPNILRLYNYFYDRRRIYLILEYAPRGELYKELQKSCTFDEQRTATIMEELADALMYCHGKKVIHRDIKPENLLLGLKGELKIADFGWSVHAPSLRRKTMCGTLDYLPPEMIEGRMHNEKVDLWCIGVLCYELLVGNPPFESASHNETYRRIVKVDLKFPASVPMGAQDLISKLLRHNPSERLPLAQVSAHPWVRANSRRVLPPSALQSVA
UniProt P21802, whole entry, looked up: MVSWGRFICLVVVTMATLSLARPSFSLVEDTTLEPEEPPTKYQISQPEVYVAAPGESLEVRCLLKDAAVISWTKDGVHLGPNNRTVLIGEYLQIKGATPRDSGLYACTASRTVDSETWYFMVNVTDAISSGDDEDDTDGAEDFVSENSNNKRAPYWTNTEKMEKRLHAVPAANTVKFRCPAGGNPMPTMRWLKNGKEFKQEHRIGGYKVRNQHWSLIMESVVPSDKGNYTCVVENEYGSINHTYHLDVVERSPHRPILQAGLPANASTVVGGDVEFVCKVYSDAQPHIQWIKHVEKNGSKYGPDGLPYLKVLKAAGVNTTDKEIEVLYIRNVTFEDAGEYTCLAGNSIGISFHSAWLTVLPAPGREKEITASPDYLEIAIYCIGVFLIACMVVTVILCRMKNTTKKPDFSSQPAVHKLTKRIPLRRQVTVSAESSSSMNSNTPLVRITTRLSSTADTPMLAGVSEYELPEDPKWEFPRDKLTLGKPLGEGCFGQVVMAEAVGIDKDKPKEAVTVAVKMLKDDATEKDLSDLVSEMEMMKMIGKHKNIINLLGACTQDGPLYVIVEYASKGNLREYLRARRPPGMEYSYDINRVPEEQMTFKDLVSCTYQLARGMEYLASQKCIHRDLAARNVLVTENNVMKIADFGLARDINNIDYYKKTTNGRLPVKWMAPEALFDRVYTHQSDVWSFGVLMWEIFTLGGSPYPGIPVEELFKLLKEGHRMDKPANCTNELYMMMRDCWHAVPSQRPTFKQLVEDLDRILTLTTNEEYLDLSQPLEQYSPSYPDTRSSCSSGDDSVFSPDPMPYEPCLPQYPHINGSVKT
UniProt Q9BUB5: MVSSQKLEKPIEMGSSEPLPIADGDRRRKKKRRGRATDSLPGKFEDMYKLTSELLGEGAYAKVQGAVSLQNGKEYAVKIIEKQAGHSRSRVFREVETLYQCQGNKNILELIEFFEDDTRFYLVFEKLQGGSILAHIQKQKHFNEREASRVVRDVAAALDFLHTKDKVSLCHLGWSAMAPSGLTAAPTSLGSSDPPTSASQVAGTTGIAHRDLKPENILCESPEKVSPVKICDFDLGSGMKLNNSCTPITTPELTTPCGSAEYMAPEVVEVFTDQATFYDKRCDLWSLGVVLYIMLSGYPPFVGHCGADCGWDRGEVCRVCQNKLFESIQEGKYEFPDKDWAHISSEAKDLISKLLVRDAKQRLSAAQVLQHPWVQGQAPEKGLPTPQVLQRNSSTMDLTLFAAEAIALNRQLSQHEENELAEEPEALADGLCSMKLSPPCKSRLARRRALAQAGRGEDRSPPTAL
UniProt P07949, whole entry, looked up: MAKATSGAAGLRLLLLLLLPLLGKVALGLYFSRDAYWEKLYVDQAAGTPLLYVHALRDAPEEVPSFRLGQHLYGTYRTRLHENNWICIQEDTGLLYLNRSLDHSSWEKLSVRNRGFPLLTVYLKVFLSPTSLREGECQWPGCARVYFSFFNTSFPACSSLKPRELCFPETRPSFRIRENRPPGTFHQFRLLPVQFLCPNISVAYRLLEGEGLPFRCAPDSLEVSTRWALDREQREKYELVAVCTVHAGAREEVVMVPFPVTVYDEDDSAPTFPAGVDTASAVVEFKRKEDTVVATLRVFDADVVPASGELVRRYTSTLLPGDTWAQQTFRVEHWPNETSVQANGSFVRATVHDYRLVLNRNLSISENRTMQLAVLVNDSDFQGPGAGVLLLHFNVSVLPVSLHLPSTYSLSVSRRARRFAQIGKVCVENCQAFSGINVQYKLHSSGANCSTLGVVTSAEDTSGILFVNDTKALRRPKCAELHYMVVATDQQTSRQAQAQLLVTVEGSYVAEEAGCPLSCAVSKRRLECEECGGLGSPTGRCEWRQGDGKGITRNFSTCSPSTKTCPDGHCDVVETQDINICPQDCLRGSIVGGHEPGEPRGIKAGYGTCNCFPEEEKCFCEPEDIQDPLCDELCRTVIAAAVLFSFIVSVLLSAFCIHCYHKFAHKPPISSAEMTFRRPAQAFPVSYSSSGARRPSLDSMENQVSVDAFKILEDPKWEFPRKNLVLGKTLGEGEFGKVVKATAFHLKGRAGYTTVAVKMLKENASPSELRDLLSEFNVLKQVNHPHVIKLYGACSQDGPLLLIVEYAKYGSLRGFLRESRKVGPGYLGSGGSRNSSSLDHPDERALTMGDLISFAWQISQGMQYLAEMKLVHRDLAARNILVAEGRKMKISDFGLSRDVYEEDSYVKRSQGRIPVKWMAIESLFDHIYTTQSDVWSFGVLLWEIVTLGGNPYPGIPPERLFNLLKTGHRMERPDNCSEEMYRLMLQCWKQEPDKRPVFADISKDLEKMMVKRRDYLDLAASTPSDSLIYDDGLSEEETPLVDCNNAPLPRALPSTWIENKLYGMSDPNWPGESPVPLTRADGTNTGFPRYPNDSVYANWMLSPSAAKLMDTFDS
UniProt P42356, whole entry, looked up: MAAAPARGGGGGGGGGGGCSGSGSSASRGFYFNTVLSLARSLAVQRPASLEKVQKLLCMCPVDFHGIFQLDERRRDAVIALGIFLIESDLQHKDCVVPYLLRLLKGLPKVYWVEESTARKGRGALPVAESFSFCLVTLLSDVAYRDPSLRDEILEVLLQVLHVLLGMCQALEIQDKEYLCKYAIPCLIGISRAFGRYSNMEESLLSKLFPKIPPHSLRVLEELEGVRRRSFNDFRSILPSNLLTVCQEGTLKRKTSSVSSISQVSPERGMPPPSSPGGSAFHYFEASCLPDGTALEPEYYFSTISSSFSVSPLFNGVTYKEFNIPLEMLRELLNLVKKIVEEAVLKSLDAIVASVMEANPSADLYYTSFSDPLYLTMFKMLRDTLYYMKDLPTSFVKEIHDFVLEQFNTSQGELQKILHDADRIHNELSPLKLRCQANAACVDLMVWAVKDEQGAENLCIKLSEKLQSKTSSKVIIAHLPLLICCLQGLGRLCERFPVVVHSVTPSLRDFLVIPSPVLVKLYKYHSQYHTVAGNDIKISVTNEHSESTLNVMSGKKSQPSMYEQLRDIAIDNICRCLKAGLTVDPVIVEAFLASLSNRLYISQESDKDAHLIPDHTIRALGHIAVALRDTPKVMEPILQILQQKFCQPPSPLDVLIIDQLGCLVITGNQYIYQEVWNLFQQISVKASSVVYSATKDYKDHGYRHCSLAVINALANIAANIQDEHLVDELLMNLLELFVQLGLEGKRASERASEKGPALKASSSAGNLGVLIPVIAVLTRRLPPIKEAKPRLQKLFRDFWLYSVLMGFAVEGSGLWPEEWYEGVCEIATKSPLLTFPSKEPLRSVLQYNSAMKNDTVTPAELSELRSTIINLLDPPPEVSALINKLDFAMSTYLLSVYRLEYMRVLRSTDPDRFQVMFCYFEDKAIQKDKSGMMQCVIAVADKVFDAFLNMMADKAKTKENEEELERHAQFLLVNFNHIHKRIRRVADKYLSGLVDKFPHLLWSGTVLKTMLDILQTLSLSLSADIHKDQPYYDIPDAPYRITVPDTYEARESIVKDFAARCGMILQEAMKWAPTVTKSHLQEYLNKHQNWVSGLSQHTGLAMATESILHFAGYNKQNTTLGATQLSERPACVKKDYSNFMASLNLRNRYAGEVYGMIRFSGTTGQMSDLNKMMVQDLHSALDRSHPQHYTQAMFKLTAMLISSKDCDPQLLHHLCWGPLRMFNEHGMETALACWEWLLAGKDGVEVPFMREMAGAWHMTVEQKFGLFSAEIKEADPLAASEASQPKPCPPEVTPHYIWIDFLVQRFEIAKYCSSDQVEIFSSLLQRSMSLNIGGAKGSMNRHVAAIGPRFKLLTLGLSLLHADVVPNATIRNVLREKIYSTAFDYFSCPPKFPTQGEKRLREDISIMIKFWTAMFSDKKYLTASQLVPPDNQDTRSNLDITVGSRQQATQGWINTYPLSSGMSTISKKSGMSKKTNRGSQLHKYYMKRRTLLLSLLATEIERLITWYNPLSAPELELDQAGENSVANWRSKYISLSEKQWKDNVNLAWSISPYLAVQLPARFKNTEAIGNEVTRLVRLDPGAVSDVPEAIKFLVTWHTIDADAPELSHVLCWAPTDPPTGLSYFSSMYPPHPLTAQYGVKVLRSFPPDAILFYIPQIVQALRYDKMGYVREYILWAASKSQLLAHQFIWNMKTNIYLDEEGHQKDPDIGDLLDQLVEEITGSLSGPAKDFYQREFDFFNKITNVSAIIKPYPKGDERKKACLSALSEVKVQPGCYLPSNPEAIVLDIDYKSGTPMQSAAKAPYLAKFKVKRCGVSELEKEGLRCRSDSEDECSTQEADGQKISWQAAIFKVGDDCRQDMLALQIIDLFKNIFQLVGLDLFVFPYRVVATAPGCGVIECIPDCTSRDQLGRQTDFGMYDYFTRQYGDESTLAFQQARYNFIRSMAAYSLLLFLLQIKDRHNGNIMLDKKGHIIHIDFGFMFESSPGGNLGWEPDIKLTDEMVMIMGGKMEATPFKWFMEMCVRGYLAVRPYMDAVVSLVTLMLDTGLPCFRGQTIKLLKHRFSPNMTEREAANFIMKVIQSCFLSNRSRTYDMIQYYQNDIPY
UniProt Q9UQM7, whole entry: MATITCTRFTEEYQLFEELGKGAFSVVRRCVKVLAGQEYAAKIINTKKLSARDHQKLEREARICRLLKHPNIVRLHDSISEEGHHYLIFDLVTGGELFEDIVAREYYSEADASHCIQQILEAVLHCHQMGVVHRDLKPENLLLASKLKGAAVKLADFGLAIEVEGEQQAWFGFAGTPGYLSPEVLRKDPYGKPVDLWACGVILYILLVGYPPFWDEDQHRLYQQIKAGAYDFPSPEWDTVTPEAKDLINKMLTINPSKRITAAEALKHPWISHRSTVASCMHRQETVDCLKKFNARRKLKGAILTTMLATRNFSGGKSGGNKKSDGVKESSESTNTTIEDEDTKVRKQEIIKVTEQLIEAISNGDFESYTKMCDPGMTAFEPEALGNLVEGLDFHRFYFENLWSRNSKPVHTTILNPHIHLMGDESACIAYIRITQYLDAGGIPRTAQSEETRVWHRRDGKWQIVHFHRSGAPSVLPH

Legend:
Assay in all cases: number of time points (of 5) at which kinase-Nluc abundance scored as decreased, DMSO-normalised (count); higher = more persistent destabilization
[1] = compound: C#Cc1cccc(Nc2ncnc3cc(OCCOC)c(OCCO)cc23)c1 [Desmethyl Erlotinib (hydrochloride)]; conditions: 10 µM; K562; 2-18 h
[2] = compound: C#Cc1cccc(Nc2ncnc3cc(OCCOC)c(OCCO)cc23)c1 [Desmethyl Erlotinib]; conditions: 10 µM; K562; 2-18 h
[3] = compound: C#Cc1cccc(Nc2ncnc3cc(OCCOC)c(OCCOC)cc23)c1 [Erlotinib (Hydrochloride)]; conditions: 10 µM; K562; 2-18 h
[4] = compound: C#Cc1cccc(Nc2ncnc3cc(OCCOC)c(OCCOC)cc23)c1 [Erlotinib]; conditions: 10 µM; K562; 2-18 h
[5] = compound: C#Cc1cccc(Nc2ncnc3cc4c(cc23)OCCOCCOCCO4)c1 [Icotinib (Hydrochloride)]; conditions: 10 µM; K562; 2-18 h
[6] = compound: C#Cc1cccc(Nc2ncnc3cc4c(cc23)OCCOCCOCCO4)c1 [Icotinib]; conditions: 10 µM; K562; 2-18 h
[7] = compound: C/C=C1\C(=O)C[C@H]2[C@@H]3CCC4=CC(=O)CC[C@]4(C)[C@H]3CC[C@]12C [(Z)-Guggulsterone]; conditions: 10 µM; K562; 2-18 h
[8] = compound: C/C=C1\C(=O)C[C@H]2[C@@H]3CCC4=CC(=O)CC[C@]4(C)[C@H]3CC[C@]12C [Guggulsterone]; conditions: 10 µM; K562; 2-18 h
[9] = compound: C=CC(=O)N1CCN(c2ncnc3c(F)c(-c4c(O)cccc4F)c(Cl)cc23)CC1; conditions: K562, 2-18 h
[10] = compound: C=CC(=O)Nc1cc(Nc2ncc(C(=O)OC(C)C)c(-c3cn(C)c4ccccc34)n2)c(OC)cc1N(C)CCN(C)C [Mobocertinib (succinate)]; conditions: 10 µM; K562; 2-18 h
[11] = compound: C=CC(=O)Nc1cc(Nc2ncc(C(=O)OC(C)C)c(-c3cn(C)c4ccccc34)n2)c(OC)cc1N(C)CCN(C)C [Mobocertinib]; conditions: 10 µM; K562; 2-18 h
[12] = compound: C=CC(=O)Nc1cc(Nc2nccc(-c3cn(C)c4ccccc34)n2)c(OC)cc1N(C)CCN(C)C [Osimertinib (dimesylate)]; conditions: 2.5 µM; K562; 2-18 h
[13] = compound: C=CC(=O)Nc1cc(Nc2nccc(-c3cn(C)c4ccccc34)n2)c(OC)cc1N(C)CCN(C)C [Osimertinib mesylate]; conditions: 2.5 µM; K562; 2-18 h
[14] = compound: C=CC(=O)Nc1cc(Nc2nccc(-c3cn(C)c4ccccc34)n2)c(OC)cc1N(C)CCN(C)C [Osimertinib]; conditions: 2.5 µM; K562; 2-18 h
[15] = compound: C=CC(=O)Nc1cc(Nc2nccc(-c3cn(C4CC4)c4ccccc34)n2)c(OC)cc1N(C)CCN(C)C [Almonertinib (hydrochloride)]; conditions: 2.5 µM; K562; 2-18 h
[16] = compound: C=CC(=O)Nc1cc(Nc2nccc(-c3cn(C4CC4)c4ccccc34)n2)c(OC)cc1N(C)CCN(C)C [Almonertinib]; conditions: 2.5 µM; K562; 2-18 h
[17] = compound: C=CC(=O)Nc1cc2c(Nc3ccc(F)c(Cl)c3)ncnc2cc1C#CC(C)(C)N1CCN(C)CC1 [AV-412 (free base)]; conditions: 2.5 µM; K562; 2-18 h
[18] = compound: C=CC(=O)Nc1cc2c(Nc3ccc(F)c(Cl)c3)ncnc2cc1C#CC(C)(C)N1CCN(C)CC1; conditions: 2.5 µM; K562; 2-18 h
[19] = compound: CC(=O)N[C@H](Cc1ccc(O)cc1)C(=O)N[C@H](CCCN=C(N)N)C(=O)N[C@H](Cc1ccccc1)C(N)=O; conditions: 10 µM; K562; 2-18 h
[20] = compound: CC(=O)Nc1cccc(-n2c(=O)n(C3CC3)c(=O)c3c(Nc4ccc(I)cc4F)n(C)c(=O)c(C)c32)c1 [Trametinib (DMSO solvate)]; conditions: 10 µM; K562; 2-18 h

Measured: number of time points

DYRK2 (UniProt Q92630)
4: [18]
2: [6]
3: [3] | [17]
0: [1] | [2] | [4] | [5] | [7] | [8] | [9]; 2.5 µM | [9]; 10 µM | [10] | [11] | [12] | [13] | [14] | [15] | [16] | [19] | [20]

AURKB (UniProt Q96GD4)
3: [17] | [18]
0: [1] | [2] | [3] | [4] | [5] | [6] | [7] | [8] | [9]; 2.5 µM | [9]; 10 µM | [10] | [11] | [12] | [13] | [14] | [15] | [16] | [19]
1: [20]

SRC (UniProt P12931)
0: [1] | [2] | [3] | [4] | [5] | [6] | [7] | [8] | [9]; 2.5 µM | [9]; 10 µM | [10] | [11] | [12] | [13] | [14] | [15] | [16] | [17] | [18] | [19] | [20]

DDR1 (UniProt Q08345)
5: [17] | [18]
0: [1] | [2] | [3] | [4] | [5] | [6] | [7] | [8] | [9]; 2.5 µM | [9]; 10 µM | [10] | [11] | [12] | [13] | [14] | [15] | [16] | [19] | [20]

FGFR2 (UniProt P21802)
1: [6]
0: [1] | [2] | [4] | [5] | [7] | [8] | [9]; 2.5 µM | [9]; 10 µM | [10] | [11] | [12] | [13] | [14] | [15] | [16] | [17] | [18] | [19]
2: [20]
3: [3]

MKNK1 (UniProt Q9BUB5)
0: [1] | [2] | [3] | [4] | [5] | [6] | [7] | [8] | [9]; 2.5 µM | [9]; 10 µM | [10] | [11] | [12] | [13] | [14] | [15] | [16] | [17] | [18] | [19] | [20]

PRKCA (UniProt P17252)
0: [1] | [2] | [3] | [4] | [5] | [6] | [7] | [8] | [9]; 2.5 µM | [9]; 10 µM | [10] | [11] | [12] | [13] | [14] | [15] | [16] | [17] | [18] | [19] | [20]

RET (UniProt P07949)
0: [1] | [2] | [3] | [4] | [5] | [6] | [7] | [8] | [9]; 2.5 µM | [9]; 10 µM | [10] | [11] | [12] | [13] | [14] | [15] | [16] | [17] | [18] | [19] | [20]

SYK (UniProt P43405)
0: [1] | [2] | [3] | [4] | [5] | [6] | [7] | [8] | [9]; 2.5 µM | [9]; 10 µM | [10] | [11] | [12] | [13] | [14] | [15] | [16] | [17] | [18] | [19] | [20]

RAF1_S257L (clone: RAF1_mut) (UniProt P04049)
1: [1] | [2]
2: [6]
0: [3] | [4] | [5] | [7] | [8] | [9]; 2.5 µM | [9]; 10 µM | [10] | [11] | [12] | [13] | [15] | [16] | [17] | [18] | [19] | [20]
3: [14]

CSNK1D (UniProt P48730)
0: [1] | [2] | [3] | [4] | [5] | [6] | [7] | [8] | [9]; 2.5 µM | [9]; 10 µM | [10] | [11] | [12] | [13] | [14] | [15] | [16] | [17] | [18] | [19] | [20]

PIK4CA (UniProt P42356)
0: [1] | [2] | [3] | [4] | [5] | [6] | [7] | [8] | [9]; 2.5 µM | [9]; 10 µM | [10] | [11] | [12] | [13] | [14] | [15] | [16] | [17] | [19] | [20]
1: [18]

RAF1 (UniProt P04049)
2: [20]
0: [1] | [2] | [3] | [4] | [5] | [6] | [7] | [8] | [9]; 2.5 µM | [9]; 10 µM | [10] | [11] | [12] | [13] | [14] | [15] | [16] | [17] | [18] | [19]

CAMK2A (UniProt Q9UQM7)
0: [1] | [2] | [3] | [4] | [5] | [6] | [7] | [8] | [9]; 2.5 µM | [9]; 10 µM | [10] | [11] | [12] | [13] | [14] | [15] | [16] | [17] | [18] | [19] | [20]
